Assay results as given in the supplement of paper PMC10849652.
The other results are listed elsewhere or left out.

By UniProt entry, the sequences of proteins in these tests, tags left out. Where a name states a change or a piece, a line headed by the entry shows the natural chain unless it says otherwise.
UniProt A4D1P6: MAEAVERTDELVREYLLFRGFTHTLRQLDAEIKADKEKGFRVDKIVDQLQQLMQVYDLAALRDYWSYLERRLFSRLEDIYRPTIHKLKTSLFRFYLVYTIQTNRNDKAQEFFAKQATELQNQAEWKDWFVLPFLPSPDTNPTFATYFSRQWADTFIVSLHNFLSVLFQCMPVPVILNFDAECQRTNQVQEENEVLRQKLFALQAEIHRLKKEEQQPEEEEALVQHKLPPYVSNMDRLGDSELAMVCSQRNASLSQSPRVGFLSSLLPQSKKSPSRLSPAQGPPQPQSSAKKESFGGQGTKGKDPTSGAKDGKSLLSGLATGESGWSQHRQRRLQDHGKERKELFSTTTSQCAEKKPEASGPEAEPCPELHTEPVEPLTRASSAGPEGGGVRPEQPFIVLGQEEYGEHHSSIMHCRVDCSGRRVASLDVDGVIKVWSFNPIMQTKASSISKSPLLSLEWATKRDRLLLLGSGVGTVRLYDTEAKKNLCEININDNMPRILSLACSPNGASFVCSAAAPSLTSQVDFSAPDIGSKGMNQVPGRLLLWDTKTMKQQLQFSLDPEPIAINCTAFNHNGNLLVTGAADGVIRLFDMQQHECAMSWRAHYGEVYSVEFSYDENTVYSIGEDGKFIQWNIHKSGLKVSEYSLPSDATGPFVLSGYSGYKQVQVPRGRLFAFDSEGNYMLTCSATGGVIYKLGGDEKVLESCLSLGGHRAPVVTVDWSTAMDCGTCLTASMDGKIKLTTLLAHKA
UniProt Q9H4A3: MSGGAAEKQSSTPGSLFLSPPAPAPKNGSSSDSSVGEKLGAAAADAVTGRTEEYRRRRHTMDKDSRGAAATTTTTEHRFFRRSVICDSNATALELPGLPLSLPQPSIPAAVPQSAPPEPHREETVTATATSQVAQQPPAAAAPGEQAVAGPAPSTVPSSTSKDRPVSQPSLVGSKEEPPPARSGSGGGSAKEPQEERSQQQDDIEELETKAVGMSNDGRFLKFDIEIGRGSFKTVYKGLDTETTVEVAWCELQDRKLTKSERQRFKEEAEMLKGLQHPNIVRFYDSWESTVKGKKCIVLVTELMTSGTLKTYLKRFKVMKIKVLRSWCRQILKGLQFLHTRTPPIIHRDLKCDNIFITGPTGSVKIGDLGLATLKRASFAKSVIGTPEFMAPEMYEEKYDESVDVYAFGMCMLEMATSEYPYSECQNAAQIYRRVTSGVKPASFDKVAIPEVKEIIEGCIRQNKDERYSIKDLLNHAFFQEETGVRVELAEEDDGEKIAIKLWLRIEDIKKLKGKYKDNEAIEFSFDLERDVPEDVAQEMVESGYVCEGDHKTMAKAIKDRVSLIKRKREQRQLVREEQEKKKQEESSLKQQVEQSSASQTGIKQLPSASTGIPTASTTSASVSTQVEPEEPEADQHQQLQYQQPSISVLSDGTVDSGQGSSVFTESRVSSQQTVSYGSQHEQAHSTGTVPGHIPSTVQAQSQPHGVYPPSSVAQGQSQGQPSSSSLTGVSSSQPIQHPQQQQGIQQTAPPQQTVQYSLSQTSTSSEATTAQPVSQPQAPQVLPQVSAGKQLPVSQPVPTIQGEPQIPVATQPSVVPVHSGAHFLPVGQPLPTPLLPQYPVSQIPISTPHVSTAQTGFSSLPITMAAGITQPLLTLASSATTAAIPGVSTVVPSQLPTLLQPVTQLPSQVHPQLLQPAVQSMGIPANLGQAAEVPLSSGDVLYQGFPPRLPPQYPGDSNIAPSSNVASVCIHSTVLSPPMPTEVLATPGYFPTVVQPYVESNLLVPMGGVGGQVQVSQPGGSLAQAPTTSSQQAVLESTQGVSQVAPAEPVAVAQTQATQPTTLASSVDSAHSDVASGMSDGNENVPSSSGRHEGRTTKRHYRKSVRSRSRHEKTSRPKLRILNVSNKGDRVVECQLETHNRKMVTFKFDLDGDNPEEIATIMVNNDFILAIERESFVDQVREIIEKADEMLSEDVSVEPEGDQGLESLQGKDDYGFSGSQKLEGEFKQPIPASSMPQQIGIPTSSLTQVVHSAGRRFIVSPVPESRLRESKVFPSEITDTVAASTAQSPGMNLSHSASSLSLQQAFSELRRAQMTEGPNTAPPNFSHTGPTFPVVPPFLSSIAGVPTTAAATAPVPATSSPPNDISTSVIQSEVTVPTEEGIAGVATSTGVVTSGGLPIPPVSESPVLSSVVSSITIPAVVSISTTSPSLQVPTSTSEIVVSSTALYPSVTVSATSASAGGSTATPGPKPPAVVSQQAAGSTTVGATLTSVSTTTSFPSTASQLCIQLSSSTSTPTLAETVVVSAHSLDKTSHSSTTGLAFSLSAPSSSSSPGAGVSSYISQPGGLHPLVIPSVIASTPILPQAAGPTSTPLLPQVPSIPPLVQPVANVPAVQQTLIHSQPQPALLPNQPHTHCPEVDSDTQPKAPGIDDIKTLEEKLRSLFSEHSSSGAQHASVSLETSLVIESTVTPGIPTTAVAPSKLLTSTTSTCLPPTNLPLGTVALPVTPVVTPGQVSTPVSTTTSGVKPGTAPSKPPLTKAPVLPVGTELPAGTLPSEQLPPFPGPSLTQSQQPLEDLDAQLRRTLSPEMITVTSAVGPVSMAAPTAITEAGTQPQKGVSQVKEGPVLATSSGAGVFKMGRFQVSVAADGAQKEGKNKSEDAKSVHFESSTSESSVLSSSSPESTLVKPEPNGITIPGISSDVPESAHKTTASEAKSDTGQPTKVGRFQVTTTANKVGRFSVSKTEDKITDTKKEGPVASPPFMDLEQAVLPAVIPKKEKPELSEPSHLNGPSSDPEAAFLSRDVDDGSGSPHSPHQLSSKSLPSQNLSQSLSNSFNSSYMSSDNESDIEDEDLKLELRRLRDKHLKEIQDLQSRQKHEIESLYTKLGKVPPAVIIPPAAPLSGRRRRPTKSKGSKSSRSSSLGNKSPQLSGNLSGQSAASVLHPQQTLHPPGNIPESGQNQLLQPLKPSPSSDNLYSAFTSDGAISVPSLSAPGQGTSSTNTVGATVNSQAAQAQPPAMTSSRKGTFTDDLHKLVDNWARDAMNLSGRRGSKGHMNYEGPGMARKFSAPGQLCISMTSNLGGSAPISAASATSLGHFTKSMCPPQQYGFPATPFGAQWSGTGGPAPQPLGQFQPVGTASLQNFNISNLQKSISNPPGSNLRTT
UniProt P23381: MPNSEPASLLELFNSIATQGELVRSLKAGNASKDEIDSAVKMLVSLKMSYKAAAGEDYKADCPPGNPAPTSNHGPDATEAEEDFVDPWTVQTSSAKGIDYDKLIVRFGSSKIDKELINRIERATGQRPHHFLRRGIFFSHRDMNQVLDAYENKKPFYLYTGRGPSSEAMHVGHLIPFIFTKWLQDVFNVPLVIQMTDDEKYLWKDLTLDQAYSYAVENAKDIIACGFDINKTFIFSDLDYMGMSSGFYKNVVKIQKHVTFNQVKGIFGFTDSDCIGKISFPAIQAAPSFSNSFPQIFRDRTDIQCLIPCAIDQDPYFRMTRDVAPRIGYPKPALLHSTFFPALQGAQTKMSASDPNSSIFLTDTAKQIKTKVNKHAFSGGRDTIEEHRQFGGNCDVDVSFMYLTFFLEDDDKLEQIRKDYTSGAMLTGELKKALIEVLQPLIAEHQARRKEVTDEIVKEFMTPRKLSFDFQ
UniProt A3KMH1: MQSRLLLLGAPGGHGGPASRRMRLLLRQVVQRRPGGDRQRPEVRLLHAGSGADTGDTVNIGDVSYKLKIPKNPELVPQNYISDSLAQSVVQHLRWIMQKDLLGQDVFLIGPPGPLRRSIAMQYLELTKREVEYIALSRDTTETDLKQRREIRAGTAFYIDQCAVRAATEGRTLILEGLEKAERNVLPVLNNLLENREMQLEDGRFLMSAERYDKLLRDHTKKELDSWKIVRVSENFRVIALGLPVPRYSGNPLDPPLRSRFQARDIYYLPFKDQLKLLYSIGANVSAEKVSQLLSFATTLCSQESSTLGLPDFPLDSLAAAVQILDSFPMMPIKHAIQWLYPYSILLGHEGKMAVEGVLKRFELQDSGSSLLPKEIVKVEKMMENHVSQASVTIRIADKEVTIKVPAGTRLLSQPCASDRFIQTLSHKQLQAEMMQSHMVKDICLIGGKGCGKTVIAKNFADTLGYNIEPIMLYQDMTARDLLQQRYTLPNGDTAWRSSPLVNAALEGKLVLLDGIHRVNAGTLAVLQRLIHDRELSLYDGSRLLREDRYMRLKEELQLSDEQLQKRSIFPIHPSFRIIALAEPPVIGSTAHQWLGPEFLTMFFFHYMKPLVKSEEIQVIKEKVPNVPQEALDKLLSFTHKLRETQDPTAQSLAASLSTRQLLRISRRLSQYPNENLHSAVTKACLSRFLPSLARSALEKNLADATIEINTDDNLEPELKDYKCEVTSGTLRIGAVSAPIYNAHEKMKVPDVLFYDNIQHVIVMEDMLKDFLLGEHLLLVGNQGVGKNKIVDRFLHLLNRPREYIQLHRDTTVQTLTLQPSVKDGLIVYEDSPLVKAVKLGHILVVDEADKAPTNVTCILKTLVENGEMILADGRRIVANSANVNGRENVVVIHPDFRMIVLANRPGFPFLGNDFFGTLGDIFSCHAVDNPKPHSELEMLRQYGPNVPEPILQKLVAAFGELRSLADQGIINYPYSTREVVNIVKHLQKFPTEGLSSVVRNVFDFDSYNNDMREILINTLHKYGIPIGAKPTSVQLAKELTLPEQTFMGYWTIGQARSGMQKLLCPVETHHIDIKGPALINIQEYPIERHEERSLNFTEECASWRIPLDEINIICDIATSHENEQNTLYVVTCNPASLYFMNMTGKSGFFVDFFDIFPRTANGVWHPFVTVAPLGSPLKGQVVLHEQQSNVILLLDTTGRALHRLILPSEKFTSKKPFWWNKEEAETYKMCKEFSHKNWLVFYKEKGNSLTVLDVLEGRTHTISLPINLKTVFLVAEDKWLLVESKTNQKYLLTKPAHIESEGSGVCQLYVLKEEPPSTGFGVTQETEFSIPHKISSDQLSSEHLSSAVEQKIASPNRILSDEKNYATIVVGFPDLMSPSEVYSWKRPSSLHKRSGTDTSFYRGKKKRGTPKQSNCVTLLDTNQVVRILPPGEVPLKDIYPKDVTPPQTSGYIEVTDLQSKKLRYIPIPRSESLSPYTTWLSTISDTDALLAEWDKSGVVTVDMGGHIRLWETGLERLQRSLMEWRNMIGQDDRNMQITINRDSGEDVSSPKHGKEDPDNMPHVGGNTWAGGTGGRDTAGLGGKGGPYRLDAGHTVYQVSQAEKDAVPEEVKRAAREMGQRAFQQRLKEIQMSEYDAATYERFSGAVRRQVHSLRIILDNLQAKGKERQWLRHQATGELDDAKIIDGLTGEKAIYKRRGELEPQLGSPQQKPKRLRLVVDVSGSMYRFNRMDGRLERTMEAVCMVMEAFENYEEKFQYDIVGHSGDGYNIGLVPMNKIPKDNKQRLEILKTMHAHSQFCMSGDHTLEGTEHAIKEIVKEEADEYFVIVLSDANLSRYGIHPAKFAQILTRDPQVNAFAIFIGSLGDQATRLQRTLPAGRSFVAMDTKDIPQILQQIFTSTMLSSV
UniProt Q8NEZ2: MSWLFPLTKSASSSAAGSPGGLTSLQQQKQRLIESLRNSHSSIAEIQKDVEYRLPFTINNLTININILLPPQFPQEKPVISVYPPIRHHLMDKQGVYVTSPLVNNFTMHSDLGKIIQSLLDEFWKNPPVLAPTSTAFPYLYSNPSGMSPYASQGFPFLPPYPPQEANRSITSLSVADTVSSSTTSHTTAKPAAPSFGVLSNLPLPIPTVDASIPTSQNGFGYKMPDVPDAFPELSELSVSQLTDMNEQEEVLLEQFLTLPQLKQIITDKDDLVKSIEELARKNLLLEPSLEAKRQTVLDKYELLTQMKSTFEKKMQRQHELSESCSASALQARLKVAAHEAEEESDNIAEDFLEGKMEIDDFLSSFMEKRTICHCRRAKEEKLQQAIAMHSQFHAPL
UniProt Q15061: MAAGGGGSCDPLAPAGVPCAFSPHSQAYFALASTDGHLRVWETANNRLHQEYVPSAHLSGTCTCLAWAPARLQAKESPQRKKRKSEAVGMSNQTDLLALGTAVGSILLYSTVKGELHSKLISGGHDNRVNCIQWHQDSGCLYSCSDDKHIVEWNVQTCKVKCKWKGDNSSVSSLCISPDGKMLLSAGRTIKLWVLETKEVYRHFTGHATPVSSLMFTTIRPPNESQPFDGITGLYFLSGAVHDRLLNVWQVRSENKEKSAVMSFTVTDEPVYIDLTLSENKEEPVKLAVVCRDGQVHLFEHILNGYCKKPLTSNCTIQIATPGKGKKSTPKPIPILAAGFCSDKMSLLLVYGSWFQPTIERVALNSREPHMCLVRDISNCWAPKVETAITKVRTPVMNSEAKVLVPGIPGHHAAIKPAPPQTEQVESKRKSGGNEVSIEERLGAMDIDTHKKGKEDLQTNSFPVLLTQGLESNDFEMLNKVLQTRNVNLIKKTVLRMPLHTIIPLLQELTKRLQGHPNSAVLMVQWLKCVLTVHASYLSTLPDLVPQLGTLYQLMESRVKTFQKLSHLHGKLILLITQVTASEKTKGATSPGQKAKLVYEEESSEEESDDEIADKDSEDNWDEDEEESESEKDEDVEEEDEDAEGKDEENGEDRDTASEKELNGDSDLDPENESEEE

Assays:
Experiment in all cases: log2 fold change, soluble protein after heating vs DMSO (PISA); higher = thermal stabilisation; K562 lysate, 10 uM; active = over 0.2 and 3.5 SD of the protein, either way, in both replicates (recomputed)
erlotinib = compound: C#Cc1cccc(Nc2ncnc3cc(OCCOC)c(OCCOC)cc23)c1 [erlotinib]
Outline: (§1)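 Dounce homogenisation of K562 pellets in PBS pH 7.4 with 1 mM MgCl2 produced a crude extract, used at 1 mg/mL protein. Exposure to 10 μM compound lasted 30 min, and aliquots were then heated for 3 min across 48°C-58°C, pooled and brought to 0.5% NP-40 at 4°C. The supernatant after 21,000xg for 90 min was quantified by TMTpro 16plex LC-MS/MS with channel sums equalised. Duplicate values are given as log-two fold change in thermal stability relative to solvent controls.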

[1] = compound: C/C(=N\NC(=O)C1=CC(=CC=C1)S(=O)(=O)N2CCOCC2)/C3=C(C=CC(=C3)Cl)O
Outline: as §1

[2] = compound: C1=CC(=CC=C1C2=NC3=C(N2)C=C(C=C3)C(=O)N)OC4=CC=C(C=C4)Cl
Outline: as §1

[3] = compound: C1=CC2=C(C=CC(=C2)/C=C\3/C(=O)NC(=NCC4=CC=CS4)S3)N=C1
Outline: as §1

[4] = compound: C1=CC2=NC=CN=C2C=C1/C=C/3\C(=O)NC(=O)S3
Outline: as §1

[5] = compound: C1=CC=C(C=C1)C2=NC(=C(N2)C3=CC=NC=C3)C4=CC(=C(C=C4)Cl)O
Outline: as §1

[6] = compound: C1=CC=C2C(=C1)C3=NNC4=CC=CC(=C43)C2=O
Outline: as §1

[7] = compound: C1CCN(C1)C(=O)NC2=CC=CC(=C2)NC3=NC=C(C(=N3)NCCC4=CN=CN4)Br
Outline: as §1

[8] = compound: C1CN(CCC1(CC2=CC=C(C=C2)Cl)N)C3=NC=NC4=C3C=CN4
Outline: as §1

IRAK-1-4 Inhibitor I = compound: C1COCCN1CCN2C3=CC=CC=C3N=C2NC(=O)C4=CC(=CC=C4)[N+](=O)[O-] [IRAK-1-4 Inhibitor I]
Outline: as §1

ibrutinib = compound: C=CC(=O)N1CCC[C@@H](n2nc(-c3ccc(Oc4ccccc4)cc3)c3c(N)ncnc32)C1 [ibrutinib]
Outline: as §1

[9] = compound: CC(=O)c1cnc2ccc(-c3cc(Cl)c(O)c(Cl)c3)nc2c1N[C@H]1CC[C@H](CN(C)C)CC1
Outline: as §1

ralimetinib = compound: CC(C)(C)Cn1c(N)nc2ccc(-c3[nH]c(C(C)(C)C)nc3-c3ccc(F)cc3)nc21 [ralimetinib]
Outline: as §1

[10] = compound: CC(C)(O)CC(=O)NCCn1ccc2ncnc(Nc3ccc(Oc4cccc(C(F)(F)F)c4)c(Cl)c3)c21
Outline: as §1

[11] = compound: CC(C)C1=C2N=C(C=C(N2N=C1)NCC3=CC=CC=C3)NCCCCCCN
Outline: as §1

[12] = compound: CC1=C(C(CC(=O)N1)C2=CC=C(C=C2)C(F)(F)F)C(=O)NC3=C(C=C4C(=C3)C=NN4)F
Outline: as §1

[13] = compound: CC1=C(C2=C(C=C1)C(=O)C3=CC=CC=C3N2CCCN)C
Outline: as §1

[14] = compound: CC1=C(C=C(C=C1)NC(=O)C2=CC(=CC=C2)C(C)(C)C#N)NC3=CC4=C(C=C3)N=CN(C4=O)C
Outline: as §1

[15] = compound: CC1=C(C=C(C=C1)NC(=O)C2=CC(=CC=C2)N(C)C)NC(=O)C3=CC=C(C=C3)O
Outline: as §1

[16] = compound: CC1=CC=C(C=C1)SC2=C3C=C(SC3=CN=C2)C(=O)N
Outline: as §1

Measured: log2 fold change

WDR91 (UniProt A4D1P6)
inactive: erlotinib 0.02 | [1] 0.04 | [2] -0.019 | [3] 0.038 | [4] -0.034 | [5] 0.002 | [6] 0.019 | [7] -0.011 | [8] -0.007 | IRAK-1-4 Inhibitor I -0.013 | ibrutinib 0.05 | [9] 0.011 | ralimetinib 0.026 | [10] -0.002 | [11] -0.026 | [12] -0.013 | [13] -0.009 | [14] -0.046 | [15] 0.043 | [16] 0.002

WDR82 (UniProt Q6UXN9)
inactive: erlotinib -0.015 | [1] 0.009 | [2] 0.004 | [3] -0.004 | [4] 0.026 | [5] -0.007 | [6] 0.043 | [7] -0.001 | [8] 0.024 | IRAK-1-4 Inhibitor I -0.009 | ibrutinib 0.003 | [9] -0.024 | ralimetinib 0.011 | [10] -0.022 | [11] -0.002 | [12] -0.006 | [13] 0.003 | [14] 0.001 | [15] 0.005 | [16] -0.007

WNK1 isoform 7 (UniProt Q9H4A3)
inactive: erlotinib -0.016 | [1] -0.03 | [2] 0.037 | [3] 0 | [4] -0.026 | [5] -0.006 | [6] 0.011 | [7] -0.005 | [8] -0.006 | IRAK-1-4 Inhibitor I -0.012 | ibrutinib 0.078 | [9] -0.014 | ralimetinib 0.031 | [10] -0.017 | [11] 0.012 | [12] 0.038 | [13] -0.008 | [14] -0.015 | [15] -0.01 | [16] -0.02

WARS (UniProt P23381)
inactive: erlotinib -0.015 | [1] -0.001 | [2] 0 | [3] 0 | [4] -0.009 | [5] 0.014 | [6] 0.041 | [7] 0.01 | [8] 0 | IRAK-1-4 Inhibitor I 0.021 | ibrutinib 0.027 | [9] -0.002 | ralimetinib 0.004 | [10] 0.014 | [11] 0.014 | [12] -0.012 | [13] -0.008 | [14] 0.011 | [15] -0.018 | [16] -0.008

WDR20 isoform 7 (UniProt Q8TBZ3)
inactive: erlotinib -0.001 | [1] -0.105 | [2] 0.043 | [3] 0.04 | [4] -0.117 | [5] 0.094 | [6] -0.016 | [7] -0.05 | [8] 0.092 | IRAK-1-4 Inhibitor I 0.026 | ibrutinib 0.003 | [9] -0.001 | ralimetinib 0.088 | [10] -0.023 | [11] -0.019 | [12] 0.087 | [13] 0.044 | [14] 0.058 | [15] -0.003 | [16] 0.014

VWA8 (UniProt A3KMH1)
inactive: erlotinib 0.005 | [1] -0.145 | [2] 0.039 | [3] -0.072 | [4] 0.168 | [5] -0.075 | [6] -0.121 | [7] -0.06 | [8] 0.096 | IRAK-1-4 Inhibitor I 0.103 | ibrutinib -0.084 | [9] -0.509 | ralimetinib 0.001 | [10] -0.208 | [11] 0.001 | [12] 0 | [13] -0.066 | [14] 0.005 | [15] 0.039 | [16] 0.056

VPS37A (UniProt Q8NEZ2)
inactive: erlotinib 0.027 | [1] -0.07 | [2] 0.034 | [3] -0.023 | [4] -0.072 | [5] -0.011 | [6] -0.011 | [7] -0.041 | [8] 0.009 | IRAK-1-4 Inhibitor I -0.005 | ibrutinib -0.012 | [9] 0.021 | ralimetinib 0.013 | [10] 0.002 | [11] -0.02 | [12] 0.066 | [13] 0.036 | [14] -0.103 | [15] 0.02 | [16] -0.02

WDR43 (UniProt Q15061)
inactive: erlotinib 0.02 | [1] 0.005 | [2] -0.005 | [3] -0.016 | [4] 0.003 | [5] -0.026 | [6] 0.016 | [7] -0.014 | [8] -0.039 | IRAK-1-4 Inhibitor I -0.006 | ibrutinib -0.004 | [9] 0 | ralimetinib 0.083 | [10] -0.015 | [11] 0.002 | [12] 0.003 | [13] 0.003 | [14] 0.003 | [15] 0.028 | [16] -0.027

WDR7 (UniProt Q9Y4E6)
inactive: erlotinib 0.05 | [1] -0.076 | [2] -0.016 | [3] -0.059 | [4] -0.001 | [5] -0.005 | [6] -0.038 | [7] 0.018 | [8] 0.042 | IRAK-1-4 Inhibitor I 0.01 | ibrutinib 0.067 | [9] 0.04 | ralimetinib 0.063 | [10] -0.075 | [11] -0.03 | [12] -0.005 | [13] -0.013 | [14] 0.037 | [15] -0.06 | [16] -0.013
